The target of the test is 3xFlag-DCTD (distal C-terminus of CaV1.3 α1D) (not stated (human or rat cDNA cloned)) (UniProt Q01668). Description: co-IP.

No constants are given. Whether binding was seen depends on the method and setting. Binding seen in cells or lysates may run through a third protein. Binding can be weak; no strength is given. Where a sequence is shown, tags or fusion partners need not be part of it.

As to ANAAAAKIQASFRGHMARKKIK (domain or fragment, UniProt Q04940 26-47) [IQNg, HA-tagged], the binding result is recorded as “binds”.

For the origin of these results see publication doi:10.1101/2025.06.20.660829.
